Assay results as given in patent publication US20120046195A1.
Results are given in words; binding and its absence hold for the method and conditions named. Some entries that bind do so weakly or less than the wild type. Tags and fused reporters may be left off the sequences shown.

Target: purified recombinant Bcl-B produced without GST tag (human) (UniProt Q9HD36)
Assay: SDS-PAGE, SDS-resistant dimer

binding: binds
B1: purified recombinant Bcl-B produced without GST tag (protein)
chain: MVDQLRERTTMADPLRERTELLLADYLGYCAREPGTPEPAPSTPEAAVLRSAAARLRQIHRSFFSAYLGYPGNRFELVALMADSVLSDSPGPTWGRVVTLVTFAGTLLERGPLVTARWKKWGFQPRLKEQEGDVARDCQRLVALLSSRLMGQHRAWLQAQGGWDGFCHFFRTPFPLAFWRKQLV
